Results published in PubChem BioAssay AID2685 (National Center for Advancing Translational Sciences (NCATS), 2010).
Where “and” joins values, the source holds several entries; their conditions need not be identical. Equal entries are not always repeated. The list shows a part of the results. Shown are side measurements of this screen, not its main read-out; they come without a call. The list favours compounds with an active or inconclusive main result. Potencies come from curve fits of mixed quality, noted in brackets.

Assay: qHTS Assay for Lipid Storage Modulators in Drosophila S3 Cells;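 for cell number change: cells counted by Cell Tracker Red CMTPX staining in the red channel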
Details: BODIPY lipid droplet fluorescence, 18-24 h; for cell number change: measured here: cell count max response, cells fed with added oleic acid
Procedure, shortened: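 Drosophila S3 cells got compounds at several concentrations plus oleic acid (400 uM solution). Laser-scanning cytometry with 488 nm excitation read lipid droplets at 500-530 nm and cells at 575-640 nm. Percent activity was relative to 20 uM Triacsin C.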

[1] = measured here: lipid fluorescence (Fed channel) AC50, cells fed with added oleic acid
[2] = measured here: cell number channel AC50, cells fed with added oleic acid

Structure (SMILES)	cell number change	AC50 [1]	AC50 [2]
Cc1nc(COc2ccc(C(=O)Nc3ccccc3N3CCOCC3)cc2)cs1	-20%	6.51 µM [rising, single point]	
CCCCNC(=O)COC(=O)c1ccc(C)c(NC(=O)c2ccco2)c1	23.4%	5.8 µM [rising, full curve]	6.51 µM [rising, partial curve, poor fit]
O=C(COc1ccccc1C(=O)NCC1CCCO1)Nc1ccc(Cl)cc1Cl (stereo not drawn)	-38.3%		
CC1(C)Cc2cccc(OCC(=O)N3CCN(c4ccc(F)cc4)CC3)c2O1	-75%		0.731 µM [falling, full curve, poor fit]
Oc1ccc(/C=C/c2cc(O)cc(O)c2)cc1	-14.7%	29.1 µM [rising, single point]	
CC(C)(C)c1ccc(Cn2c(=N)n(CC(O)c3ccco3)c3ccccc32)cc1 (stereo not drawn)	-57.9%	23.1 µM [falling, single point]	29.1 µM [falling, single point]
Cc1c(-n2c(O)c(C3=c4ccccc4=NC3=O)sc2=S)c(=O)n(-c2ccccc2)n1C	0.273%	29.1 µM [rising, single point]	
Cc1ccc(N2C(=O)CC(Sc3nccc(C)n3)C2=O)cc1 (stereo not drawn)	-12.1%	13 µM [rising, partial curve]	
COC(=O)c1cccc(NS(=O)(=O)c2ccc(NC(C)=O)cc2)c1C	-82.8%		
CC(OC(=O)CC1Sc2ccccc2NC1=O)C(=O)NC1CCCC1 (stereo not drawn)	0.833%	0.146 µM [falling, full curve]	
CCOc1ccc(Cc2nc(C)c(CC(=O)N3CCOCC3)c(=O)[nH]2)cc1	-3.27%		
O=C(O)c1cccc(N2C(=O)/C(=C/c3ccc(SCc4ccc(Cl)cc4)o3)SC2=S)c1	2.73%		0.00461 µM [falling, full curve, poor fit]
Cc1cccc(-c2c(O)cc(=O)[nH]c2Cl)c1	1.09%		
CCOCCCNC(=O)C1CCN(S(=O)(=O)c2cc(Br)cc3c2N(C(=O)CC)CC3)CC1	-27.6%	6.51 µM [rising, single point]	
Cc1cc(C)nc(NS(=O)(=O)c2ccc(NC(=O)c3cccc(N4C(=O)CCC4=O)c3)cc2)n1	12.8%	23.1 µM [falling, partial curve, poor fit]	0.092 µM [rising, full curve, poor fit]
COc1ccc(N/C(C)=C/C(=S)Nc2ccccc2)cc1	15.8%	0.517 µM [rising, partial curve]	
O=C(Nc1ccc2c(c1)oc1ccccc12)C1CC1	-5.56%	2.59 µM [rising, single point]	
Brc1ccc(-c2ccc(/C=N/Nc3nc4ccccc4[nH]3)o2)cc1	-52.9%	25.9 µM [falling, partial curve]	29.1 µM [falling, partial curve, poor fit]
CCOC(=O)N1CCN(C(=O)/C(=C/c2cccc3ccccc23)NC(=O)c2ccc(OC)c(OC)c2)CC1	4.01%	5.17 µM [rising, partial curve]	
CCCCCOC(=O)Cn1c(=O)c2c(nc(N3CCOCC3)n2C)n(C)c1=O		6.51 µM [rising, single point]	
Fc1ccc(Oc2ccc3nnc(C(F)(F)F)n3n2)cc1		18.4 µM [rising, single point]	
CCOC(=O)CNC(=O)CSc1nnc(NC(=O)c2ccc(S(=O)(=O)N3CCOCC3)cc2)s1	9.48%	0.651 µM [rising, partial curve]	
CCOC(=O)C1=CCC2c3c(c4ccccc4n3C)C(=O)C1N2C(=O)OC(C)(C)C (stereo not drawn)	-1.9%	0.92 µM [falling, full curve]	0.731 µM [falling, full curve]
Cc1nn(-c2ccccc2)c2sc(C(=O)NC3CC3)cc12	-44.4%		1.46 µM [falling, partial curve]
C/C(=N/NS(=O)(=O)c1ccc(Br)cc1)c1ccc(NC(=O)c2ccc(C)o2)cc1	-23.8%	10.3 µM [rising, partial curve]	
CCOC(=O)C1=C(COCCN)NC(C)=C(C(=O)OC)C1c1ccccc1Cl (stereo not drawn)	14.1% and 2.89%	2.91 µM [rising, full curve] and 164 nM [rising, full curve, poor fit]	
CCOC(=O)C1CCN(CC(O)COc2ccc(C(C)=O)cc2)CC1 (stereo not drawn)		0.00517 µM [falling, full curve, poor fit]	
Cc1ccc(-c2nnc(CN3CCCCC3C)o2)cc1 (stereo not drawn)	14.9%	16.4 µM [rising, single point]	
CN(C)c1ccc(C2Nc3ccccc3C(=O)N2CCCN2CCOCC2)cc1 (stereo not drawn)	40.1%	5.8 µM [rising, partial curve, poor fit]	
COc1ccc(NC(=O)c2cccc(N3C(=O)C4C5C=CC(C5)C4C3=O)c2)cc1 (stereo not drawn)	-5.8%	29.1 µM [falling, single point]	

Full records as entered above.
CCOC(=O)C1CCN(CC(O)COc2ccc(C(C)=O)cc2)CC1 (stereo not drawn) in the list: AC50 [1]: 0.00517 µM [falling, full curve, poor fit]
O=C(O)c1cccc(N2C(=O)/C(=C/c3ccc(SCc4ccc(Cl)cc4)o3)SC2=S)c1 in the list: cell number change: 2.73%; AC50 [2]: 0.00461 µM [falling, full curve, poor fit]
